Data from patent publication US20260259232A1, “A METHOD” (OWLSTONE MEDICAL LIMITED, priority 2022, published 2026).

Assay: Breath analysis by SIFT-MS before and after ingestion of 75 g glucose in healthy subjects
Type: in vivo, human
Settings: 10 healthy subjects; 75 grams of glucose

**Q.** With `CC(O)C(C)O` (stereo not drawn) [2-3-Butanediol, 2,3-butanediol] as the compound, how does the “Spike in breath elicited by glucose administration” value (“Spike in breath elicited” below) read?
**A.** Its value is “No spike”.

**Q.** For `CCO` [ethanol], which “Spike in breath elicited” value is on record?
**A.** Its value is “spike of ethanol in breath in all the tested subjects”.

**Q.** Which “Spike in breath elicited” value does the source give for `CC(=O)C(C)O` (stereo not drawn) [acetoin] here?
**A.** Its value is “spike of acetoin in all the subjects”.
